Measurements reported in patent US4372953A, “Tetrazole derivatives, and anti-ulcer composition containing the same” (Otsuka Pharmaceutical Company, Limited, priority 1980, dated 1983).
For at least one compound, name, drawing or mass did not settle the structure.

Tested on: male Wistar rats
Assay: Acute toxicity (LD50, p.o.)
Format: in vivo
Conditions: oral
Experimental: The test compounds were orally administered to male Wistar rats, and the half lethal dose (LD50) was measured.

SMILES | LD50
Cn1nnnc1SCCCSc1ccncc1 [compound 25] | > 500 mg/kg, p.o.
CCN(CCCSc1nnnn1C)C(=O)C1CCCCC1 [compound 90] | > 500 mg/kg, p.o.
CCN(CCCSc1nnnn1C)C(=O)C1CCCC1 [compound 92] | > 500 mg/kg, p.o.
